The filed quantity is “Percent Effect” (%). The controls that fix the scale are not given in the record; negative values are as filed. Compounds were drawn at random from those tested, without regard to their results.

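Whole-cell assay for inhibitors of Mycobacterium tuberculosis growth, labelled Cornell in the record; the read-out is not stated. The concentration is filed as 10 mM, unlikely as a test dose, so the dose is not known. Higher means stronger inhibition (inferred from two other growth screens of the library). Of about 53,000 compounds tested this way, about 900 (1.7%) reached 50% or more in at least one test.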

SMILES,Percent Effect
Cc1ccc(CN2CCN(c3cc(NCCO)ncn3)CC2CCO)o1 (stereo not given),18.15
COc1ccccc1CCNC(=O)C1CCC(Cn2cnnn2)CC1 (stereo not given),3.007
Cc1cnc(N2CCN(C)c3ncccc3C2)nc1.O=C(O)C(F)(F)F,25.88
CC(C)N(C)Cc1cc(=O)n2c(n1)CN(C(=O)c1cnccn1)CCC2,-18.78
Cn1ncc(NCc2cccc(OCC(F)(F)F)c2)c(Cl)c1=O,-16.88
COCCNC(=O)CN1CCCC1c1c(C)nn(C)c1Cl (stereo not given),-22.86
O=C(c1ccc(O)cc1)N1CCN(C(=O)c2ccc3c(c2)COC3)CC1,11.15
COc1cccc(CNc2nc(O)cc(C3CC(=O)N(C)C3)n2)c1 (stereo not given),14.97
CCn1nccc1C(=O)NC(Cn1cccn1)C(C)(C)C (stereo not given),-4.866
O=C(Nc1ccccc1)C1=NOC2(CCCNC2)C1 (stereo not given),-17.04
NC(=O)c1ccc(C(=O)N2CCCCC2Cn2cccn2)s1 (stereo not given),-20
CS(=O)(=O)N1CCOC2(CCCC2)C1,28.9
COCCN1C2(CCN(C(=O)c3cccs3)C2)c2ccccc2S1(=O)=O (stereo not given),-0.8353
Cc1cc2[nH]cc(C(=O)N3CCCCC3c3ccc(F)cc3)c(=O)n2n1 (stereo not given),-5.37
CC(=O)N1CC2(CCN(C(=O)N(C)C)CC2)c2cc(C)ccc21,-3.114
Cc1ccc(OCC2CCCN(c3nc(CO)cs3)C2)cc1 (stereo not given),25.9
CCNC(=O)[C@@H]1C[C@@H](NC(=O)Cc2cc(C)no2)CN1Cc1ccsc1,-13.59
CSc1[nH]nc(NC(=O)c2ccccc2)c1C#N,2.452
Cc1noc(C)c1CN(C)Cc1csc(-c2ncccn2)n1,4.264
COc1cccc([C@@H]2N[C@H](c3nccs3)Cc3ccsc32)c1OC,50.54
COCc1nc2ncc3c(=O)n(-c4ccc(OC)cc4)ccc3n2n1,-26.88
CN(C)CCCNC(=O)C1CC(=O)N(c2n[nH]c3cccc(F)c23)C1 (stereo not given),10.65
COc1ccccc1Oc1ncccc1CNC(=O)[C@H](C)O,17.29
Cc1nc2[nH]cnc(Nc3ccn(C)n3)c-2n1,8.557
CCNC(=O)CNC(=O)c1ccn(S(=O)(=O)c2ccc(C)cc2)c1,-23.72
COc1ccc(C(=O)n2nc(C)c(C)c2C)cc1,-7.432
CC[C@@H]1N(Cc2ccncc2)CCC[C@]12CCC(=O)N2C.O=C(O)C(F)(F)F.O=C(O)C(F)(F)F,-18.82
O=C(O)c1cnc(N2CCC(O)CC2)nc1COc1cccc(F)c1,26.01
CCCc1nc(C)c(C(=O)NCCN2CCN(CC)CC2)s1,13.14
Cc1nn(C)cc1-c1cc(C(=O)NCC(C)(C)c2ccc(F)cc2)n[nH]1,61.27
CCn1nc(C(C)C)cc1C(=O)NCc1nc2ccc(OC)cc2[nH]1,22.63
Cc1cc2[nH]c(O)nc2cc1NCc1ccc(F)cc1,47.35
O=C(O)C(F)(F)F.O=C(O)C(F)(F)F.O=C(O)C(F)(F)F.c1ccc(CN2CCc3nnc(COc4ccccn4)n3CC2)nc1,-36.09
Cc1cc2nc(CO[C@H]3CN(CC4CC4)C[C@H]3F)[nH]c2cc1C,-18.82
CNC(=O)C(NC(=O)c1nccn2ccnc12)c1ccc(F)c(F)c1 (stereo not given),7.576
Cc1nc(CN2CCCC2c2c(C)nn(C)c2Cl)no1 (stereo not given),26.6
CC(=O)N(C)Cc1ncn2c1CN(C(=O)CC1CC1)CCC2,-2.965
COCCNC(=O)CN1CCN(c2nc(C)cs2)C(C)C1 (stereo not given),29
CCOC(=O)CNC(=O)NCc1cc(C)n(-c2ccc(OC)cc2)c1C,36.02
Cc1nc(CN2CCC3(CC2)CC(=O)N(C)c2ccccc23)cs1.O=C(O)C(F)(F)F,22.03
CC(C)n1cnnc1CNC(=O)c1cnn(-c2ccccc2)c1,-0.9574
CN(C)C(=O)CN1CCOCC2(CCN(c3ncc(F)cn3)CC2)C1.O=C(O)C(F)(F)F,-2.109
O=C(c1cccn1Cc1cccs1)N1CCN(C2CC2)CC1,17.94
[H][C@@]12CO[C@@H](CNC(=O)c3ccco3)[C@]1([H])CCN(c1ccc(C)nn1)C2,-3.576
CSc1ccc(C(=O)N2CC(=O)N(CC3CC3)CC(O)C2)cc1 (stereo not given),13.42
CC[C@H](C)[C@H](N)C(=O)Nc1nc(-c2cnc(N3CCOCC3)nc2)cs1,24.03
CC(c1ccncc1)N(C)S(C)(=O)=O (stereo not given),-4.577
O=C(Nc1nc2c(s1)CN(C(=O)NCc1cccs1)CC2)C1CC1,25.74
Cc1cc(CN2CCN(C(=O)NCc3c(C)noc3C)CC2)on1,-9.248
O=C(O)C(F)(F)F.[H][C@]12CCCN(CC3CC3)[C@@]1([H])CN(C(=O)c1ccco1)C2,-10.99
O=C(NCc1cccnc1)NCC(O)c1ccccc1C(F)(F)F (stereo not given),-5.728
Cc1cc(C(=O)N2CCC(Nc3cccnn3)CC2)no1,2.506
CCC(C)N(Cc1cccnc1)C(=O)c1ccc(F)c(O)c1 (stereo not given),-13.98
CCC(CO)N(Cc1cccs1)C(=O)Cc1ccc(O)cc1 (stereo not given),9.616
COc1ccc(C(=O)N2CCC(Oc3ccc(C)cc3)(C(=O)O)CC2)o1,5.491
O=C(c1ncccc1O)N1CCc2c(nc(-c3ccncc3)[nH]c2=O)C1,-19.47
C[C@H](c1ccc(F)cc1)n1c(C2CCN(C)CC2)n[nH]c1=O,-10.56
O=C(O)C(F)(F)F.O=C(O)C(F)(F)F.[H][C@@]12OCCN(Cc3ccc(C)o3)[C@@]1([H])CC[C@@H]2OCc1cccnc1,-1.337
Cc1cc(NCCO)nc(N2CCC(Cc3ccccc3)CC2)c1C#N.O=C(O)C(=O)O,-0.1758
Cc1nc(N2CCOc3ccc(CO)cc3C2)c2nc(C)oc2n1,-12.15
CN1CCC(c2cccc(Cc3ccc(C(F)(F)F)cc3)n2)CC1,12.55
CCCNC(=O)C(C)Nc1ccc(OCC)cc1 (stereo not given),11.74
O=S(=O)(c1cncc(F)c1)N1CCC2(CCCCC2)C1,24.12
CNC(=O)CNC(=O)CC1C(=O)NCCN1Cc1ccccc1C (stereo not given),-11.93
CCn1cc(NC(=O)c2cccc(CN3C[C@@H](C)O[C@@H](C)C3)c2)nn1,20.34
CC(C)C(=O)Nc1ccc(C(O)Cn2nc(-c3cccs3)oc2=O)cc1 (stereo not given),-34.23
Cc1nc(C)n(C2CCCN(C(=O)COCc3ccccc3)C2)n1 (stereo not given),-15.35
Cn1ncc(NCc2cccc(F)c2)c(Cl)c1=O,-17.23
COCc1cn(C2CCN(C(=O)c3ccc(F)c(C)c3)CC2)nn1,11.92
Cc1ccc(C2CN(CCS(=O)(=O)C(C)C)CCO2)c(C)c1 (stereo not given),20.08
Cc1ccccc1S(=O)(=O)N(C)[C@@H]1CC[C@@H](n2ccnc2C)[C@@H]1O,-38.18
CN(CCc1cn[nH]c1)C(=O)CCc1ccc(Cl)cc1,2.389
CCN(CC1CCCO1)C(=O)Nc1cc(C(=O)OC)ccc1F (stereo not given),39.16
O=C(O)C(F)(F)F.[H][C@@]12CCCO[C@]1([H])[C@H](NS(C)(=O)=O)CN(Cc1ccco1)C2,20.92
CSc1ccc(-c2nc(CN3CCCC(CNC(C)=O)C3)c(C)o2)cc1 (stereo not given),-44.92
Cc1nn(C)c(C)c1CC(=O)NCc1ccnc(OC2CCCC2)c1,-5.68
CCN(CC)C1COc2c(cc(Br)c(C)c2Br)C1=O (stereo not given),14.22
NC(=O)[C@@H]1Cc2ccccc2CN1S(=O)(=O)N1CCCCCC1,0.629
COc1ccc2c(ccn2CCC(=O)NCCC(=O)O)c1,-16.91
Cc1nc(CNC(=O)NC2CCCN(c3ncccn3)C2)cs1 (stereo not given),13.7
CCc1nc(C2CCCN2C(=O)c2cc(Cl)c[nH]2)no1 (stereo not given),23.06
CCn1ccc(NC(=O)CCc2c(C)noc2C)n1,-0.5527
Cc1csc(C(=O)N2CCC(S(C)(=O)=O)CC2)c1,7.125
Cc1nc(CNC(=O)Nc2ccc3c(ccn3CCN(C)C)c2)no1,-15.84
COC(=O)C(C)(C)NC(=O)C1CC(=O)N(C)C1 (stereo not given),20.38
O=C(O)C(F)(F)F.[H][C@]12CC[C@@]3(N=C(C)N(CC(C)C)C3=O)[C@@]1([H])CNC2,-39.25
Cc1oncc1S(=O)(=O)N1CCCC(C)(Cc2ccc3c(c2)OCO3)C1 (stereo not given),-8.009
N#Cc1ccc(C(=O)N2CCCC3(C=Cc4ccccc4O3)CC2)cn1 (stereo not given),17.18
Cc1ccccc1-n1cnnc1SCCOCC1CCCO1 (stereo not given),-24.46
Cc1ncc(C(=O)NCCNC(=O)c2ccccc2)s1,-13.65
COCc1ccccc1CNc1cc(N2CCCC2CO)ncn1 (stereo not given),-2.042
Cc1cccc(CNCC2COC3(CCCC3)O2)c1C (stereo not given),14.79

Repeated from the top, 7 entries:

| SMILES | Percent Effect |
|---|---|
| `Cc1ccc(CN2CCN(c3cc(NCCO)ncn3)CC2CCO)o1` (stereo not given) | 18.15 |
| `COc1ccccc1CCNC(=O)C1CCC(Cn2cnnn2)CC1` (stereo not given) | 3.007 |
| `Cc1cnc(N2CCN(C)c3ncccc3C2)nc1.O=C(O)C(F)(F)F` | 25.88 |
| `CC(C)N(C)Cc1cc(=O)n2c(n1)CN(C(=O)c1cnccn1)CCC2` | -18.78 |
| `Cn1ncc(NCc2cccc(OCC(F)(F)F)c2)c(Cl)c1=O` | -16.88 |
| `COCCNC(=O)CN1CCCC1c1c(C)nn(C)c1Cl` (stereo not given) | -22.86 |
| `O=C(c1ccc(O)cc1)N1CCN(C(=O)c2ccc3c(c2)COC3)CC1` | 11.15 |

Source: ChEMBL document CHEMBL3988442, “University of Dundee, Small-Polar-MMV Screening Library” (2021).